A short description of the experiment: qHTS Assay for Lipid Storage Modulators in Drosophila S3 Cells.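 On cell number change: cells counted by Cell Tracker Red CMTPX staining in the red channel.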 As to conditions: BODIPY lipid droplet fluorescence, 18-24 h; for cell number change: measured here: cell count max response, cells fed with added oleic acid. The procedure, abridged:
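Drosophila S3 cells loaded with oleic acid (400 uM, as added) and compounds at several concentrations; lipid droplets imaged by 488-nm laser-scanning cytometry, 500–530 nm intensity and object ratio to cell channel. Percent activity normalized to 20 uM Triacsin C.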

The mark [1] stands for this setting: measured here: cell number channel AC50, cells fed with added oleic acid.
[2] abbreviates: measured here: lipid fluorescence (Fed channel) AC50, cells fed with added oleic acid.

This is one part of the list. Further columns of the screen follow, without active or inactive calls. The list favours compounds with an active or inconclusive main result. The note in brackets gives the kind of curve behind each potency; many fits are weak.

`O=C1OC(NC(=O)c2ccccc2)C(N2CCOCC2)=C1Cl` (stereo not given): the cell number change is 40.2%. Moreover, the AC50 under setting [1] was 5.8 µM [falling, single point]. Further, the AC50 under setting [2] is 10.3 µM [falling, partial curve].
On to `CCOc1ccccc1NC(=O)NCc1cccnc1`, for which the cell number change is -25.5%.
Regarding `C=CCNc1nc(-c2sc(NC(C)=O)nc2C)cs1`, the cell number change was determined as 22.2%. In addition, the AC50 under setting [1] is 0.0651 µM [rising, full curve, poor fit]. Under setting [2], the concentration at half-maximal activity (AC50) is 3.66 µM [rising, partial curve, poor fit].
For the compound `CCC(CC)C(=O)N1CC(=O)Nc2ccc(C)cc2C1c1ccccc1` (stereo not given), the cell number change was determined as 20.7%. The AC50 under setting [1] was 2.59 µM [rising, full curve, poor fit].
Consider `Cc1ccc(CS(=O)(=O)CCC(=O)N2CCOCC2)cc1`, for which the cell number change was -3.84%. Also, under setting [2], the AC50 was 16.4 µM [rising, single point].
Turning to `COC1=C(OC)C(=O)C(CCCCCCCCCCO)=C(C)C1=O`, the AC50 under setting [2] is 13 µM [falling, partial curve, poor fit].
For `Cc1sc2nc(CN3CCOCC3)[nH]c(=S)c2c1C`, the cell number change is 45.8%. In addition, the AC50 under setting [1] was 5.8 µM [rising, full curve].
Take `Cc1ccccc1OCC(=O)NN1C(=O)C2C3C=CC(O3)C2C1=O` (stereo not given): the cell number change came to 0.385%. The AC50 under setting [1] is 1 µM [rising, partial curve]. Also, the AC50 under setting [2] was 0.316 µM [rising, single point].
With `C/C(=N\OCC(=O)NC(C)C)c1cccs1`, the cell number change was 6.46%. Besides, the AC50 under setting [1] was 0.461 µM [rising, single point]. Besides, the AC50 under setting [2] was 3.26 µM [rising, single point].
For the compound `Cc1cc(Nc2cccc([N+](=O)[O-])c2)c2cccc(C)c2n1`, the cell number change came out at 11.7%.
For the compound `C(#Cc1ccc(C#CCN2CCCC2)cc1)CN1CCCC1`, under setting [1], the AC50 is 6.51 µM [falling, single point].
As to `COc1cc(C#CC#CCN2CCCCC2)ccc1O`, the cell number change is -43.4%. Moreover, the AC50 under setting [1] is 23.1 µM [falling, single point]. For the same compound, the AC50 under setting [2] was 20.6 µM [falling, single point].
On to `C1CCCN(CCCCN2CCCCCC2)CC1`, for which the AC50 under setting [2] was 5.17 µM [falling, full curve].
With `Cn1cccc1CNC(=O)Nc1ccccc1`, the cell number change was -29.4%. The AC50 under setting [2] is 0.13 µM [falling, full curve, poor fit].
Consider `CC(=O)c1ccc(OCc2cc(C(=O)N3CCC(Oc4ccccc4C)CC3)no2)cc1`, for which the cell number change was 40.7%. For the same compound, under setting [1], the half-maximal activity concentration (AC50) is 35.5 µM [rising, single point]. Moreover, under setting [2], the AC50 is 20 µM [rising, partial curve, poor fit].
Regarding `CCc1cc2cc3c(cc2nc1SCC(=O)Nc1cc(OC)c(OC)cc1C(=O)O)OCO3`, the cell number change was 29.9%.
With `COc1ccc(S(=O)(=O)N2CCCCC2)cc1N(C)S(=O)(=O)c1ccccc1`, the cell number change is -27.2%. For the same compound, under setting [2], the AC50 is 29.1 µM [falling, single point].
Take `CC(c1nc2ccccc2c(=O)[nH]1)N(C)c1ccc2ccccc2c1` (stereo not given): the cell number change was -1.16%. Besides, the AC50 under setting [2] is 18.4 µM [rising, single point].
For the compound `CC(C)(C)c1ccc(/C=N/NC(=S)NC2CCCCC2)cc1`, the cell number change is -6.92%. Moreover, under setting [2], the AC50 was 29.1 µM [falling, single point].
As to `CCOC(=O)N1CCN(C(=O)c2cc3c(=O)n4cccc(C)c4nc3s2)CC1`, the cell number change is 7.26%.
Regarding `CC(C)n1c(/C=C/[C@@H](O)C[C@@H](O)CC(=O)O)c(-c2ccc(F)cc2)c2ccccc21`, the cell number change came to 17.6%.
For `Cc1ccc(S(=O)(=O)CCc2nnc(NC(=O)c3cnccn3)s2)cc1`, the AC50 under setting [1] is 2.31 µM [rising, single point] and the AC50 under setting [2] is 2.06 µM [rising, partial curve].
`Cc1ccc(S(=O)(=O)NCC(=O)OCCOc2cccc(Cl)c2)cc1`: the cell number change amounted to 14.9%. The AC50 under setting [2] was 1.84 µM [falling, partial curve, poor fit].
`CCOC(=O)Cc1csc(N)n1`: the cell number change was -109%. Moreover, the AC50 under setting [1] was 5.8 µM [falling, full curve]. Further, under setting [2], the AC50 is 23.1 µM [falling, single point].
Regarding `COc1cc(OC)cc(C(=O)N[C@H](C(=O)Nc2ccc(F)cc2F)C(C)C)c1`, the cell number change turned out to be 27.4%. Moreover, the AC50 under setting [1] was 4.11 µM [rising, full curve, poor fit].
On to `CCCC(=O)c1ccc(N2CCOCC2)c(F)c1`, for which the cell number change is 3.86%. Further, the AC50 under setting [2] was 0.82 µM [rising, full curve, poor fit].
Take `C=CCN(CC=C)C(=O)C1CCN(S(=O)(=O)c2ccc(-n3cnnn3)cc2)CC1`: the cell number change is 5.13%.
In the case of `CCOc1ccc2nc(NC(=O)C3CCCN(S(=O)(=O)c4cccc5nonc45)C3)sc2c1` (stereo not given), the cell number change is -3.06%. Moreover, the AC50 under setting [2] is 0.366 µM [rising, partial curve, poor fit].
With `O=C(CN1C(=O)S/C(=C\c2ccccn2)C1=O)Nc1ccccc1`, the cell number change is 27.5%. Besides, the AC50 under setting [2] is 6.51 µM [rising, partial curve].
Turning to `CCOC(=O)C(=O)Nc1cc([N+](=O)[O-])ccc1C`, the cell number change is 20.9%. Further, the half-maximal activity concentration (AC50) under setting [2] was 20.6 µM [rising, partial curve, poor fit].
For `CCc1cc(C(c2ccc(OC)c(OC)c2)N2CCOCC2)c(NC(=O)c2ccccc2)s1` (stereo not given), the cell number change is -28%. For the same compound, under setting [2], the AC50 was 29.1 µM [falling, single point].
For the compound `COCCCNC(=O)Nc1ccc2c(c1)N(C)C(=O)CS2`, the cell number change was 58.9%. Also, the AC50 under setting [1] is 18.4 µM [rising, partial curve]. In addition, the AC50 under setting [2] is 23.1 µM [rising, partial curve].
With `Cc1nnc(-c2cnn(C)c2N)n1CCCN1CCOCC1`, the cell number change was -2.87%. In addition, the AC50 under setting [2] was 0.82 µM [falling, full curve, poor fit].
`Clc1ccc(-c2ccc(CNCC3CCCO3)o2)cc1` (stereo not given): the cell number change worked out at 28.5%. Moreover, the AC50 under setting [2] was 23.1 µM [rising, partial curve, poor fit].
Take `CSc1cccc(NC(=S)NCCCN2CCN(c3ccc(F)cc3)CC2)c1`: the AC50 under setting [2] is 0.13 µM [rising, full curve, poor fit].
Turning to `CCCCN(C)CC(O)Cn1cc(/C=C/C(=O)c2cccs2)c2ccccc21` (stereo not given), the cell number change is -8.27%. Besides, the concentration at half-maximal activity (AC50) under setting [2] was 16.4 µM [falling, single point].
Take `COc1ccc(NCC(=O)n2c(C)c(C)c3ccccc32)cc1OC`: the cell number change is 22%. Also, under setting [2], the AC50 was 0.651 µM [rising, full curve].
For `CSc1nnc(-c2ccccc2Cl)o1`, the cell number change was -75.6%. Also, the concentration at half-maximal activity (AC50) under setting [1] is 20.6 µM [falling, partial curve, poor fit]. In addition, the AC50 under setting [2] was 0.13 µM [falling, full curve, poor fit].
For `Cc1ccccc1C(=O)NC(C)C1CC2CCC1C2` (stereo not given), the cell number change is 5.13%.
Regarding `Cc1ccccc1Cn1ccc(NC(=O)c2cc3ncc(Br)cn3n2)n1`, the cell number change was -2.42%. In addition, the AC50 under setting [1] was 5.17 µM [falling, single point].
For the compound `CSc1ccc(/C=C(\C#N)C(=O)NC2CCCCC2)cc1`, the cell number change was found to be 3.89%. Moreover, the AC50 under setting [2] was 5.17 µM [falling, full curve, poor fit].
For the compound `CCN(Cc1nc(-c2ccccc2)no1)C(=O)COc1cccc(OC)c1`, the cell number change was -5.22%. The AC50 under setting [2] was 0.116 µM [falling, full curve, poor fit].
For `C/C(=N\NS(=O)(=O)c1ccccc1)c1cc(Cl)cc(Cl)c1O`, the cell number change is -21.4%. Moreover, the AC50 under setting [2] is 3.26 µM [falling, partial curve].
For `O=S(=O)(Nc1ccccc1)c1ccc(NS(=O)(=O)c2cccs2)cc1`, the cell number change is -5.26%. For the same compound, under setting [2], the AC50 was 0.447 µM [falling, partial curve].
For the compound `COc1ccc(-c2nn(-c3ccccc3)cc2/C=C(\C#N)S(=O)(=O)c2ccccc2)cc1OC`, the cell number change is -33.3%. Further, the AC50 under setting [1] is 14.6 µM [falling, single point]. Also, the AC50 under setting [2] is 6.51 µM [rising, single point].
With `CCOC(=O)CSCc1c(C#N)c2ccccc2n1C`, the cell number change amounted to 7.56%. Also, the AC50 under setting [1] was 0.116 µM [falling, full curve, poor fit]. Besides, the AC50 under setting [2] is 6.51 µM [falling, single point].
`CCOC(=O)CN1C(=O)C(O)=C(C(C)=O)C1c1ccc([N+](=O)[O-])cc1` (stereo not given): the cell number change is 40.8%. For the same compound, the AC50 under setting [2] was 2.06 µM [rising, full curve, poor fit].
For the compound `COc1ccccc1NC(=O)CSc1nnnn1-c1ccccc1OC`, the cell number change is -20.5%. Further, the AC50 under setting [2] was 0.731 µM [falling, single point].
In the case of `Cc1ccc(S(=O)(=O)NC2=NCN(CC(=O)O)CN2)cc1`, the cell number change was found to be 19.6%.
For `Cc1cc(NC(=O)CCl)n(-c2nc3ccccc3s2)n1`, the cell number change worked out at 13.9%. For the same compound, under setting [2], the half-maximal activity concentration (AC50) was 6.51 µM [rising, single point].
With `O=C(c1ccncc1)c1ccc(N2CCN(C3CC(=O)N(Cc4ccccc4)C3=O)CC2)cc1` (stereo not given), under setting [1], the AC50 was 4.11 µM [rising, single point].
As for `Cc1ccc(-c2ccc(=O)n(CCC(=O)N3CCN(c4ccccc4)CC3)n2)cc1`, under setting [2], the AC50 was 0.82 µM [rising, single point].
`N#Cc1ccc(C(=O)NC2=NCCS2)cc1`: the half-maximal activity concentration (AC50) under setting [1] was 0.82 µM [rising, single point].
With `CCOC(=O)c1c(C)[nH]c(C(=O)COC(=O)c2[nH]c(C)c(C(C)=O)c2C)c1C`, the cell number change is -4.14%. For the same compound, the concentration at half-maximal activity (AC50) under setting [2] was 0.092 µM [rising, full curve, poor fit].
As to `C/C(Cn1nnc([N+](=O)[O-])n1)=N\NC(=O)c1ccccc1Cl`, the AC50 under setting [2] is 29.1 µM [rising, single point].
On to `Cc1[nH]c2ccccc2c1SCC(=O)N1CCN(c2ccccc2)CC1`, for which the cell number change was 15.6%. Also, the AC50 under setting [2] was 0.00461 µM [rising, full curve, poor fit].
`COc1cc(-c2nnc(COC(=O)c3cc(C)no3)o2)cc(OC)c1OC`: the cell number change is -24%.
Consider `COCCCNC(=O)c1nc2ccccc2c(=O)n1NC(=O)Nc1c(Cl)cccc1Cl`, for which the cell number change was -8.5%. Besides, the AC50 under setting [2] is 1.46 µM [rising, partial curve, poor fit].
Regarding `C=C(Br)Cn1c(CC)nc2ccccc21`, the cell number change is -3.02%. The AC50 under setting [2] was 0.92 µM [rising, partial curve].
Regarding `CC1=C(C(=O)OC2CCCC2)C(c2ccc(C)o2)C2=C(CC(c3cccs3)CC2=O)N1` (stereo not given), the cell number change was -9.45%. In addition, under setting [2], the AC50 is 6.51 µM [rising, single point].
As for `COC(=O)CC1NCCNC1=O` (stereo not given), the AC50 under setting [2] is 0.058 µM [falling, full curve].

Values taken from PubChem BioAssay AID2685 (National Center for Advancing Translational Sciences (NCATS), 2010).
